Laboratory results taken from patent US20040267003A1.
No constants are given. Whether binding was seen depends on the method and setting. Binding seen in cells or lysates may run through a third protein. Binding calls can cover weak binding; strength is not graded here. Tags and fused reporters may be left off the sequences shown.

By UniProt entry, the sequences of proteins in these tests, tags left out. Where a name states a change or a piece, a line headed by the entry shows the natural chain unless it says otherwise.
UniProt O77681: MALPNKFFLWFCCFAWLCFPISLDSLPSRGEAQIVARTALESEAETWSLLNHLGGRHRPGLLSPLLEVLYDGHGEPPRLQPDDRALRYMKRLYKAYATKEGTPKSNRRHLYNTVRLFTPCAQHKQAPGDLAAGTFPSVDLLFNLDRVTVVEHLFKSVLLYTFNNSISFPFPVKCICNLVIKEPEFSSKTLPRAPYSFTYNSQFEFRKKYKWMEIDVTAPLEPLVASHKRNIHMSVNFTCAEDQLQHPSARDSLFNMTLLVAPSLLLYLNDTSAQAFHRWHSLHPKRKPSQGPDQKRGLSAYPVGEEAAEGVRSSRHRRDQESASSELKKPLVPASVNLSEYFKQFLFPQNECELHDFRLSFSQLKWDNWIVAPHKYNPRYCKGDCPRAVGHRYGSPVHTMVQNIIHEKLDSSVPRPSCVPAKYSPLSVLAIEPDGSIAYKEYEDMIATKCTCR

Biological target: ovine GDF-9 expressed in 293T cells (20 kd GDF-9 mature peptide) (sheep) (UniProt O77681)
Test: co-immunoprecipitation with anti-FLAG M2 and protein G agarose, Western blot with anti GDF-9 antibodies

B1: oGDF-9B-FLAG (processed ovine GDF-9B with C-terminal 8 amino acid FLAG epitope) (ligand, not shown: small tags and cut ends)
chain: QAGSIASEVPGPSREHDGPESNQCSLHPFQVSFQQLGWDHWIIAPHLYTPNYCKGVCPRVLHYGLNSPNHAIIQNLVSELVDQNVPQPSCVPYKYVPISILLIEANGSILYKEYEGMIAQSCTCR
**Q.** Which binding does the source give for B1 here?
**A.** binds
